Data as given in PubChem BioAssay AID1159578 (Peter MacCallum Cancer Centre, 2015).
The whole screen tested about 18,000 reagents; shown is an unselected part. About 1,030 of all reagents (5.7%) count as active. 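Inactive calls also include pools with fewer than 3300 nuclei, whose migration was not assessed.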 Raw values vary from plate to plate and are shown uncorrected. Reagents against one gene are numbered here.

Test: 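Knock-downs that alter how fast lymphatic endothelial cells migrate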 (primary screen)
Cell system: human lymphatic endothelial cells
Reagent: siRNA pool against human genes, 40 nM
Timing: 48 h after transfection
Detection: 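Cells stained with dye and imaged after a scratch; covered wound area and nuclei counted, duplicates averaged, migration set against mock wells and turned into a robust z-score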
Direction: migration robust z-score: higher = faster migration into the scratch; migration relative to mock: higher = more scratch area covered than mock; nuclei per well: higher = more cells in the well
Call rule: 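Pools averaging fewer than 3300 nuclei are never called; remaining pools count as changed when migration robust z lies outside -2 to 2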
Meaning of the calls: active = migration changed; inactive = no migration change, or too few cells

| gene knocked down | reagent | migration robust z-score | migration class with cell-count check | migration relative to mock | nuclei per well, duplicate mean | Outcome |
| --- | --- | --- | --- | --- | --- | --- |
| LTA | 1 | -1.13 | migration z between -2 and 2; enough cells | 0.59 | 6445 | inactive |
| GINM1 | 1 | 1.69 | migration z between -2 and 2; enough cells | 1.33 | 4788 | inactive |
| WFDC10B | 1 | 1.33 | migration z between -2 and 2; enough cells | 1.23 | 5832 | inactive |
| GLMP | 1 | -0.63 | migration z between -2 and 2; enough cells | 0.72 | 5045 | inactive |
| PCDH7 | 1 | -1.68 | migration z between -2 and 2; enough cells | 0.45 | 5450 | inactive |
| PCDHGA11 | 1 | 1.36 | migration z between -2 and 2; enough cells | 1.23 | 5852 | inactive |
| HELZ2 | 1 | 1.12 | migration z between -2 and 2; enough cells | 1.02 | 5798 | inactive |
| LINC02897 | 1 | 1.44 | migration z between -2 and 2; enough cells | 1.26 | 6241 | inactive |
| AKIP1 | 1 | 0.01 | migration z between -2 and 2; enough cells | 0.89 | 5630 | inactive |
| PRP4K | 1 | -0.46 | migration z between -2 and 2; enough cells | 0.72 | 5524 | inactive |
| AZIN1 | 1 | 0.99 | migration z between -2 and 2; enough cells | 1 | 7276 | inactive |
| KRABD2 | 1 | -1.3 | migration z between -2 and 2; enough cells | 0.55 | 6311 | inactive |
| SPAG8 | 1 | 0.3 | migration z between -2 and 2; enough cells | 0.96 | 5532 | inactive |
| FBXL16 | 1 | -1.22 | migration z between -2 and 2; enough cells | 0.57 | 5417 | inactive |
| MACC1 | 1 | 0.28 | migration z between -2 and 2; enough cells | 0.96 | 6202 | inactive |
| ZNF569 | 1 | 1.44 | migration z between -2 and 2; enough cells | 1.26 | 5799 | inactive |
| PRM1 | 1 | -0.31 | migration z between -2 and 2; enough cells | 0.8 | 4848 | inactive |
| TNFRSF10C | 1 | 0.62 | migration z between -2 and 2; enough cells | 0.92 | 6098 | inactive |
| ZP1 | 1 | 0.94 | migration z between -2 and 2; enough cells | 1.12 | 5273 | inactive |
| C15orf40 | 1 | -0.02 | migration z between -2 and 2; enough cells | 0.88 | 6802 | inactive |
| OR13C4 | 1 | 0.6 | migration z between -2 and 2; enough cells | 1.04 | 6022 | inactive |
| NHSL2 | 1 | -0.56 | migration z between -2 and 2; enough cells | 0.74 | 5752 | inactive |
| NHSL2 | 2 | -0.54 | migration z between -2 and 2; enough cells | 0.74 | 4542 | inactive |
| PRKCD | 1 | -0.21 | migration z between -2 and 2; enough cells | 0.76 | 4676 | inactive |
| TIGD1 | 1 | 1.35 | migration z between -2 and 2; enough cells | 1.23 | 5153 | inactive |
| GNAI1 | 1 | -1.02 | migration z between -2 and 2; enough cells | 0.61 | 5410 | inactive |
| RNF2 | 1 | -0.62 | migration z between -2 and 2; enough cells | 0.68 | 4794 | inactive |
| KIF26B | 1 | 0.44 | migration z between -2 and 2; enough cells | 1 | 6464 | inactive |
| PPY | 1 | -2.23 | migration z below -2; enough cells | 0.31 | 3958 | active |
| TAS2R60 | 1 | 0.86 | migration z between -2 and 2; enough cells | 1.11 | 7216 | inactive |

Laid out differently: 4 of the entries above
gene knocked down,reagent,migration robust z-score,migration class with cell-count check,migration relative to mock,"nuclei per well, duplicate mean",Outcome
TIGD1,1,1.35,migration z between -2 and 2; enough cells,1.23,5153,inactive
GNAI1,1,-1.02,migration z between -2 and 2; enough cells,0.61,5410,inactive
RNF2,1,-0.62,migration z between -2 and 2; enough cells,0.68,4794,inactive
KIF26B,1,0.44,migration z between -2 and 2; enough cells,1,6464,inactive

The listing continues.
| gene knocked down | reagent | migration robust z-score | migration class with cell-count check | migration relative to mock | nuclei per well, duplicate mean | Outcome |
| --- | --- | --- | --- | --- | --- | --- |
| RAP2B | 1 | -0.49 | migration z between -2 and 2; enough cells | 0.71 | 7452 | inactive |
| MSL3 | 1 | -0.76 | migration z between -2 and 2; enough cells | 0.68 | 5730 | inactive |
| GTF2H5 | 1 | -0.56 | migration z between -2 and 2; enough cells | 0.74 | 6101 | inactive |
| WDR24 | 1 | -0.34 | migration z between -2 and 2; enough cells | 0.74 | 4882 | inactive |
| IST1 | 1 | -0.02 | migration z between -2 and 2; enough cells | 0.88 | 5606 | inactive |
| EDA2R | 1 | -0.42 | migration z between -2 and 2; enough cells | 0.73 | 6626 | inactive |
| MIGA2 | 1 | -0.57 | migration z between -2 and 2; enough cells | 0.74 | 5942 | inactive |
| KRT26 | 1 | 1.42 | migration z between -2 and 2; enough cells | 1.27 | 3752 | inactive |
| INTS8 | 1 | 0.38 | migration z between -2 and 2; enough cells | 0.99 | 6308 | inactive |
| MEIG1 | 1 | -0.09 | migration z between -2 and 2; enough cells | 0.86 | 5809 | inactive |
| PXDN | 1 | -0.47 | migration z between -2 and 2; enough cells | 0.72 | 5754 | inactive |
| SLC6A9 | 1 | -0.39 | migration z between -2 and 2; enough cells | 0.73 | 5473 | inactive |
| LRRN4CL | 1 | -1.24 | migration z between -2 and 2; enough cells | 0.57 | 4925 | inactive |
| GATA1 | 1 | -0.48 | migration z between -2 and 2; enough cells | 0.76 | 4682 | inactive |
| FAM89B | 1 | 0.56 | migration z between -2 and 2; enough cells | 1.03 | 7220 | inactive |
| CPT1B | 1 | -0.54 | migration z between -2 and 2; enough cells | 0.7 | 6314 | inactive |
| RPS4Y1 | 1 | 0.47 | migration z between -2 and 2; enough cells | 1 | 7081 | inactive |
| MYL6 | 1 | -0.18 | migration z between -2 and 2; enough cells | 0.77 | 6974 | inactive |
| ADPRS | 1 | 0.26 | migration z between -2 and 2; enough cells | 0.86 | 5262 | inactive |
| MINK1 | 1 | -2.78 | migration z below -2; enough cells | 0.27 | 3697 | active |
| CFAP52 | 1 | -1.08 | migration z between -2 and 2; enough cells | 0.6 | 5763 | inactive |
| BAGE3 | 1 | -1.27 | migration z between -2 and 2; enough cells | 0.55 | 5772 | inactive |
| SAAL1 | 1 | 2.47 | migration z above 2; enough cells | 1.52 | 7434 | active |
| PDE6A | 1 | 1.27 | migration z between -2 and 2; enough cells | 1.05 | 5510 | inactive |
| TAAR5 | 1 | -0.75 | migration z between -2 and 2; enough cells | 0.66 | 5678 | inactive |
| ZNF526 | 1 | -0.26 | migration z between -2 and 2; enough cells | 0.82 | 5457 | inactive |
| TRIM26 | 1 | -1.01 | migration z between -2 and 2; enough cells | 0.61 | 5227 | inactive |
